# Data as given in PubChem BioAssay AID192 (DTP/NCI, 2004).
# The list is a part of this screen's results and no random one: it is rich in T/C values a quarter to a half above the control, in often repeated tests (any T/C) and in doses without a T/C. Further doses and runs are listed elsewhere. T/C gives the treated animals as a percentage of the vehicle group. Some entries give survivors of the animals treated and no T/C: the source holds a T/C of zero for them, seemingly a mark for toxic or unscored doses. Some survivor counts are full or nearly so, which does not show that the dose was tolerated: the source hardly ever lists a survival T/C far under the control, and the zero likely stands for such cases as well. Counts of survivors are from the toxicity check (mostly the fifth day) where no day follows; animals may have died later. Schedules are NCI's codes, read here as Q, the interval in days (D) or hours (H), X, the number of doses. Some entries hold several experiments; the values are given in rising order. Where survival is the endpoint, the PubChem record calls one and a half times the control and up active, and a quarter to a half above the control has no call in these data; cut-offs in other NCI protocols can differ. Some T/C values are followed by the survivors on the day toxicity was checked, most often the fifth; without a count, all were alive then.
# Test system: BDF1 mice, B16 melanoma ip, median survival T/C
# Assay: NCI In Vivo Anticancer Drug Screen. Data for tumor model B16 Melanoma (intraperitoneal) in B6D2F1 (BDF1) mice
# Conditions: T/C endpoint: median survival time, higher T/C = longer survival
# Procedure, shortened: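 Vehicle-treated animals serve as the reference (C); treated animals (T) are scored for survival or tumor size after tumor transplantation.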
# [1] = dose: 6.25 mg/kg/injection, schedule: Q01DX009 (ip), vehicle: Klucel (hydroxypropylcellulose) (HPC)
# [2] = dose: 25.0 mg/kg/injection, schedule: Q01DX009 (ip), vehicle: Klucel (hydroxypropylcellulose) (HPC)
# [3] = dose: 200.0 mg/kg/injection, schedule: Q01DX009 (ip), vehicle: Klucel (hydroxypropylcellulose) (HPC)
# [4] = dose: 200.0 mg/kg/injection, schedule: Q01DX009 (ip), vehicle: saline with Tween-80
# [5] = dose: 400.0 mg/kg/injection, schedule: Q01DX009 (ip), vehicle: saline with Tween-80
# [6] = dose: 12.5 mg/kg/injection, schedule: Q01DX009 (ip), vehicle: Klucel (hydroxypropylcellulose) (HPC)
# [7] = dose: 50.0 mg/kg/injection, schedule: Q01DX009 (ip), vehicle: Klucel (hydroxypropylcellulose) (HPC)
# [8] = dose: 400.0 mg/kg/injection, schedule: Q01DX009 (ip), vehicle: Klucel (hydroxypropylcellulose) (HPC)
compound,measurement,setting,value
CC1(CO)C(O)CCC2(C)C1CCC1CC3CC12CCC3(O)CO (configuration not stated),survivor count,"dose: 0.78 mg/kg/injection, schedule: Q03HX020 (ip), vehicle: Klucel (hydroxypropylcellulose) (HPC)",10 of 10
same,survivor count,"dose: 1.56 mg/kg/injection, schedule: Q03HX020 (ip), vehicle: Klucel (hydroxypropylcellulose) (HPC)",10 of 10
same,T/C,"dose: 37.5 mg/kg/injection, schedule: Q01DX009 (ip), vehicle: saline with Tween-80",142 % of control
same,T/C,"dose: 75.0 mg/kg/injection, schedule: Q01DX009 (ip), vehicle: saline with Tween-80",125 % of control
same,survivor count,"dose: 100.0 mg/kg/injection, schedule: Q03HX020 (ip), vehicle: Klucel (hydroxypropylcellulose) (HPC)",4 of 10
same,T/C,"dose: 150.0 mg/kg/injection, schedule: Q01DX009 (ip), vehicle: saline with Tween-80",148 % of control
same,T/C,"dose: 200.0 mg/kg/injection, schedule: Q04DX003 (ip), vehicle: Klucel (hydroxypropylcellulose) (HPC)",135 % of control
same,survivor count,"dose: 800.0 mg/kg/injection, schedule: Q04DX003 (ip), vehicle: Klucel (hydroxypropylcellulose) (HPC)",9 of 10
O=C1CN=C(c2ccccc2)c2cc([N+](=O)[O-])ccc2N1,survivor count,"dose: 0.78 mg/kg/injection, schedule: Q01DX009 (ip), vehicle: Klucel (hydroxypropylcellulose) (HPC)",10 of 10
same,survivor count,"dose: 1.56 mg/kg/injection, schedule: Q01DX009 (ip), vehicle: Klucel (hydroxypropylcellulose) (HPC)",10 of 10
same,survivor count,[1],10 of 10
same,survivor count,[2],9 of 10
same,survivor count,[3],10 of 10
C[CH2][Sn]1([CH2]C)[O]OC(c2ccccc2)[O]1 (configuration not stated),T/C,"dose: 0.78 mg/kg/injection, schedule: Q01DX009 (ip), vehicle: saline with Tween-80",127 % of control
same,survivor count,"dose: 25.0 mg/kg/injection, schedule: Q01DX009 (ip), vehicle: saline with Tween-80",0 of 10 and 5 of 10
NC(=S)N/N=C/c1ccc(OC(=O)COc2ccc(Cl)cc2)cn1,survivor count,[4],10 of 10
same,survivor count,[5],7 of 10
COc1ccc(CC2C(=O)NC(C)C(=O)N(C)C3C(=O)N(C)C(Cc4ccc(O)c(c4)Oc4ccc(cc4)C3O)C(=O)NC(C)C(=O)NC(C)C(=O)N2C)cc1 (configuration not stated),T/C,"dose: 0.12 mg/kg/injection, schedule: Q01DX009 (ip), vehicle: saline with Tween-80",140 % of control
same,T/C,"dose: 0.25 mg/kg/injection, schedule: Q01DX009 (ip), vehicle: saline with Tween-80",147 % of control [9 of 10 alive]
same,T/C,"dose: 1.0 mg/kg/injection, schedule: Q01DX009 (ip), vehicle: saline with Tween-80",147 % of control [9 of 10 alive]
same,survivor count,"dose: 2.0 mg/kg/injection, schedule: Q01DX009 (ip), vehicle: saline with Tween-80",9 of 10
same,survivor count,"dose: 4.0 mg/kg/injection, schedule: Q01DX009 (ip), vehicle: saline with Tween-80",2 of 10
same,T/C,"dose: 250.0 micrograms/kg/injection, schedule: Q01DX009 (ip), vehicle: saline with Tween-80",141 % of control
same,T/C,"dose: 500.0 micrograms/kg/injection, schedule: Q01DX009 (ip), vehicle: saline with Tween-80",147 % of control
same,T/C,"dose: 1000.0 micrograms/kg/injection, schedule: Q01DX009 (ip), vehicle: saline with Tween-80",149 % of control
same,T/C,"dose: 2000.0 micrograms/kg/injection, schedule: Q01DX009 (ip), vehicle: saline with Tween-80",144 % of control
same,survivor count,"dose: 4000.0 micrograms/kg/injection, schedule: Q01DX009 (ip), vehicle: saline with Tween-80",7 of 10
Cl/C(=N\Nc1ccccc1)c1ccccc1,survivor count,[6],9 of 10
COc1c(O)c2c(c3cc(C(=O)N4CCc5c4c(O)c(OC)c4[nH]c(C(=O)N6CC7CC78C6=CC(=O)c6[nH]cc(C)c68)cc54)[nH]c13)CCN2C(N)=O (configuration not stated),T/C,"dose: 3.0 micrograms/kg/injection, schedule: Q01DX009 (ip), vehicle: other",140 % of control
same,survivor count,"dose: 30.0 micrograms/kg/injection, schedule: Q01DX009 (ip), vehicle: other",10 of 10
same,survivor count,"dose: 100.0 micrograms/kg/injection, schedule: Q01DX009 (ip), vehicle: other",10 of 10
Cc1ccc(Cl)cc1NC(=O)c1cccc(C(=O)Nc2cc(Cl)ccc2C)c1,survivor count,[3],10 of 10
O=C(CNC(=O)Nc1ccc(C2=NCCN2)cc1)Nc1ccc(C2=NCCN2)cc1,survivor count,"dose: 100.0 mg/kg/injection, schedule: Q01DX009 (ip), vehicle: saline",0 of 6
same,survivor count,"dose: 200.0 mg/kg/injection, schedule: Q01DX009 (ip), vehicle: saline",0 of 6
same,survivor count,"dose: 400.0 mg/kg/injection, schedule: Q01DX009 (ip), vehicle: saline",0 of 6
CC(C)(C)OC(=O)NC(Cc1ccc(OCc2ccccc2)cc1)C(=O)O (configuration not stated),survivor count,"dose: 50.0 mg/kg/injection, schedule: Q01DX009 (ip), vehicle: saline with Tween-80",10 of 10
same,survivor count,[4],9 of 10
same,survivor count,[5],3 of 10
O=Cc1ccc(/C=C2\C=Cc3ccccc32)cc1,survivor count,[4],10 of 10
same,survivor count,[5],10 of 10
CCC/C=C/C=C\C(=O)O[C@@H]1[C@@H](C)[C@]2(O)[C@@H]3C=C(C)C(=O)[C@H]3CC(COC(C)=O)=C[C@H]2[C@@H]2C(C)(C)[C@]12OC(C)=O,survivor count,"dose: 12.0 mg/kg/injection, schedule: Q01DX009 (ip), vehicle: saline + alcohol",4 of 10
O=S(=O)(F)c1cc(C[P+](c2ccccc2)(c2ccccc2)c2ccccc2)ccc1Cl,survivor count,"dose: 0.8 mg/kg/injection, schedule: Q04DX003 (ip), vehicle: saline with Tween-80",10 of 10
same,survivor count,"dose: 1.5 mg/kg/injection, schedule: Q04DX003 (ip), vehicle: saline with Tween-80",10 of 10
same,survivor count,"dose: 6.25 mg/kg/injection, schedule: Q04DX003 (ip), vehicle: saline with Tween-80",10 of 10
same,survivor count,"dose: 25.0 mg/kg/injection, schedule: Q04DX003 (ip), vehicle: saline with Tween-80",10 of 10
CN1CCCN(C(c2ccccc2)c2ccc(Cl)cc2)CC1 (configuration not stated),survivor count,"dose: 62.5 mg/kg/injection, schedule: Q01DX009 (ip), vehicle: saline",10 of 10
same,survivor count,"dose: 125.0 mg/kg/injection, schedule: Q01DX009 (ip), vehicle: saline",0 of 10
same,survivor count,"dose: 250.0 mg/kg/injection, schedule: Q01DX009 (ip), vehicle: saline",0 of 10
CC1(C)NC(=O)C(/C=C/c2ccccc2)O1 (configuration not stated),T/C,[7],128 % of control
same,survivor count,[8],2 of 10
COC(=O)C1C(O)C(C)C(=O)C(C)/C=C\C=C(C)C(=O)Nc2c(C)c(OC(C)=O)c3c(c2O)C(=O)C(C)=C2OCOC(=C23)C(C)=CC(C)(O)C(O)C(C)C1O (configuration not stated),survivor count,[8],5 of 6
C(=P(c1ccccc1)(c1ccccc1)c1ccccc1)[P+](c1ccccc1)(c1ccccc1)c1ccccc1,T/C,"dose: 1.56 mg/kg/injection, schedule: Q01DX009 (ip), vehicle: suspension in saline",133 % of control
same,T/C,"dose: 3.12 mg/kg/injection, schedule: Q01DX009 (ip), vehicle: suspension in saline",138 % of control
same,T/C,[1],132 % of control
same,survivor count,[6],8 of 10
same,survivor count,"dose: 12.5 mg/kg/injection, schedule: Q01DX009 (ip), vehicle: suspension in saline",9 of 10
same,survivor count,[2],5 of 10
same,survivor count,[7],0 of 10
CCN(CC)CCCC(C)NC(C)CCCN(CC)CC (configuration not stated),survivor count,[2],10 of 10
same,survivor count,"dose: 25.0 mg/kg/injection, schedule: Q01DX009 (ip), vehicle: water",10 of 10
same,survivor count,[7],5 of 10
same,survivor count,"dose: 50.0 mg/kg/injection, schedule: Q01DX009 (ip), vehicle: water",10 of 10
same,survivor count,"dose: 100.0 mg/kg/injection, schedule: Q01DX009 (ip), vehicle: Klucel (hydroxypropylcellulose) (HPC)",1 of 10
same,survivor count,"dose: 100.0 mg/kg/injection, schedule: Q01DX009 (ip), vehicle: water",0 of 10
same,survivor count,[3],0 of 10
same,survivor count,[8],0 of 10
NC(=O)c1cc(N2CC2)c([N+](=O)[O-])cc1[N+](=O)[O-],survivor count,"dose: 40.0 mg/kg/injection, schedule: Q01DX009 (ip), vehicle: saline",6 of 6
